Some entries share one result that the patent states for a list of compounds.
How the values were obtained:
Format in all cases: in vivo
[1] = tested on: Diamond Backmoth (Plutella xylostella); assay: Diamond backmoth leaf-dip test, mortality; settings: 500 ppm; 72 hours after treatment; 3rd instar larvae on dipped cabbage leaves
Method: The active compound was dissolved at the desired concentration in a mixture of 1:1 (vol:vol) distilled water:aceteone. Surfactant (Alkamuls® EL 620) was added at a rate of 0.1% (vol/vol). The test solution was prepared at the day of use.
Leaves of cabbage were dipped in test solution and air-dried. Treated leaves were placed in petri dishes lined with moist filter paper and inoculated with ten 3rd instar larvae. Mortality was recorded 72 hours after treatment. Feeding damages were also recorded using a scale of 0-100%.

[2] = tested on: Southern Armyworm (Spodoptera eridiana); 2nd Instar Larvae; assay: Southern armyworm foliar spray test on lima bean, mortality; settings: 500 ppm; 4 days after treatment; lima bean foliage spray
Method: (§1) The active compounds were formulated in cyclohexanone as a 10,000 ppm solution supplied in tubes. The tubes were inserted into an automated electrostatic sprayer equipped with an atomizing nozzle and they served as stock solutions for which lower dilutions were made in 50% acetone:50% water (v/v). A nonionic surfactant (Kinetic®) was included in the solution at a volume of 0.01% (v/v).
Lima bean plants (variety Sieva) were grown 2 plants to a pot and selected for treatment at the 1st true leaf stage. Test solutions were sprayed onto the foliage by an automated electrostatic plant sprayer equipped with an atomizing spray nozzle. The plants were dried in the sprayer fume hood and then removed from the sprayer. Each pot was placed into perforated plastic bags with a zip closure. About 10 to 11 armyworm larvae were placed into the bag and the bags zipped closed. Test plants were maintained in a growth room at about 25° C. and about 20-40% relative humidity for 4 days, avoiding direct exposure to fluorescent light (24 hour photoperiod) to prevent trapping of heat inside the bags. Mortality and reduced feeding were assessed 4 days after treatment, compared to untreated control plants.

[3] = tested on: Mediterranean Fruitfly (Ceratitis capitata); assay: Mediterranean fruitfly microtiter diet test, egg and larval mortality; settings: 2500 ppm, 5 days, insect diet
Method: For evaluating control of Mediterranean fruitfly (Ceratitis capitata) the test unit consisted of microtiter plates containing an insect diet and 50-80 C. capitata eggs.
(§2) The compounds were formulated using a solution containing 75% v/v water and 25% v/v DMSO. Different concentrations of formulated compounds were sprayed onto the insect diet at 5 μl, using a custom built micro atomizer, at two replications.
After application, microtiter plates were incubated at about 28±1° C. and about 80±5% relative humidity for 5 days. Egg and larval mortality was then visually assessed.

[4] = tested on: Orchid Thrips (dichromothrips corbetti); assay: Orchid thrips floral-immersion test, mortality; settings: 500 ppm, 72 hours after treatment, adult thrips
Method: Dichromothrips corbetti adults used for bioassay were obtained from a colony maintained continuously under laboratory conditions. For testing purposes, the test compound was diluted in a 1:1 mixture of acetone:water (vol:vol), plus 0.01% vol/vol Alkamuls® EL 620 surfactant.
Thrips potency of each compound was evaluated by using a floral-immersion technique. Plastic petri dishes were used as test arenas. All petals of individual, intact or chid flowers were dipped into treatment solution and allowed to dry. Treated flowers were placed into individual petri dishes along with about 20 adult thrips. The petri dishes were then covered with lids. All test arenas were held under continuous light and a temperature of about 28° C. for duration of the assay. After 3 days, the numbers of live thrips were counted on each flower, and along inner walls of each petri dish. The percent mortality was recorded 72 hours after treatment.

[5] = tested on: TOBACCO budworm (Heliothis virescens); assay: Tobacco budworm microtiter diet test, egg and larval mortality; settings: 2500 ppm, 5 days, insect diet
Method: as §2, with “For evaluating control of tobacco budworm (Heliothis virescens) the test unit consisted of 96-well-microtiter plates containing an insect diet and 15-25 H. virescens eggs. The” for “The”, “at 10” for “at 5”
After application, microtiter plates were incubated at about 28±1° C./and about 80±5% relative humidity for 5 days. Egg and larval mortality was then visually assessed.

[6] = tested on: Boll weevil (Anthonomus grandis); assay: Boll weevil microtiter diet test, egg and larval mortality; settings: 2500 ppm, 5 days, insect diet
Method: For evaluating control of boll weevil (Anthonomus grandis) the test unit consisted of 24-well-microtiter plates containing an insect diet and 20-30 A. grandis eggs.
The compounds were formulated using a solution containing 75% v/v water and 25% v/v DMSO. Different concentrations of formulated compounds were sprayed onto the insect diet at 20 μl, using a custom built micro atomizer, at two replications.
After application, microtiter plates were incubated at about 23±1° C. and about 50±5% relative humidity for 5 days. Egg and larval mortality was then visually assessed.

[7] = tested on: Green Peach Aphid (Myzus persicae); assay: Green peach aphid spray test on bell pepper plants, mortality; settings: 2500 ppm; after 5 days; sprayed bell pepper plants
Excerpt: as §1
Bell pepper plants at the first true-leaf stage were infested prior to treatment by placing heavily infested leaves from the main colony on top of the treatment plants. Aphids were allowed to transfer overnight to accomplish an infestation of 30-50 aphids per plant and the host leaves were removed. The infested plants were then sprayed by an automated electrostatic plant sprayer equipped with an atomizing spray nozzle. The plants were dried in the sprayer fume hood, removed, and then maintained in a growth room under fluorescent lighting in a 24-hr photoperiod at about 25° C. and about 20-40% relative humidity. Aphid mortality on the treated plants, relative to mortality on untreated control plants, was determined after 5 days.

[8] = tested on: Vetch aphid (Megoura viciae); assay: Vetch aphid broad bean leaf disk test, mortality; settings: 2500 ppm; 5 days; adult aphids on broad bean leaf disks
Method: For evaluating control of vetch aphid (Megoura viciae) through contact or systemic means the test unit consisted of 24-well-microtiter plates containing broad bean leaf disks.
The compounds were formulated using a solution containing 75% v/v water and 25% v/v DMSO. Different concentrations of formulated compounds were sprayed onto the leaf disks at 2.5 μl, using a custom built micro atomizer, at two replications.
After application, the leaf disks were air-dried and 5-8 adult aphids placed on the leaf disks inside the microtiter plate wells. The aphids were then allowed to suck on the treated leaf disks and incubated at about 23±1° C. and about 50±5% relative humidity for 5 days. Aphid mortality and fecundity was then visually assessed.

[9] = tested on: Cowpea Aphid (Aphis Craccivora); assay: Cowpea aphid spray test on potted cowpea plants, mortality; settings: 500 ppm; after 72 hours; sprayed cowpea plants
Method: The active compound was dissolved at the desired concentration in a mixture of 1:1 (vol:vol) distilled water:acetone. Surfactant (Alkamuls® EL 620) is added at a rate of 0.1% (vol/vol). The test solution was prepared at the day of use.
Potted cowpea plants were colonized with approximately 50-100 aphids of various stages by manually transferring a leaf tissue cut from infested plant 24 hours before application. Plants were sprayed after the pest population has been recorded. Treated plants were maintained on light carts at about 28° C. Percent mortality was assessed after 72 hours.

| Structure (SMILES) | mortality in comparison with untreated controls [1] | mortality in comparison with untreated controls [2] | mortality in comparison with untreated controls [3] | mortality in comparison with untreated controls [4] | mortality in comparison with untreated controls [5] | mortality in comparison with untreated controls [6] | mortality in comparison with untreated controls [7] | mortality in comparison with untreated controls [8] | mortality in comparison with untreated controls [9] |
| --- | --- | --- | --- | --- | --- | --- | --- | --- | --- |
| Cc1cc(Cl)cc(C(=O)NOCC(N)=O)c1NC(=O)c1cc(Br)nn1-c1ncccc1Cl [Compound 1-2] | 100% | 100% | over 75% | over 75% | over 75% | over 75% | over 75% | – | – |
| Cc1cc(Cl)cc(C(=O)NOCC(=O)NC(C)(C)C)c1NC(=O)c1cc(Br)nn1-c1ncccc1Cl [Compound 1-5] | 100% | 100% | over 75% | over 75% | over 75% | over 75% | over 75% | over 75% | – |
| Cc1cc(Cl)cc(C(=O)NOCC(=O)NC(C)C)c1NC(=O)c1cc(Br)nn1-c1ncccc1Cl [Compound 1-9] | 100% | 100% | over 75% | over 75% | over 75% | over 75% | over 75% | over 75% | – |
| CN(C)C(=O)CONC(=O)c1cc(Br)cc(Br)c1NC(=O)c1cc(Br)nn1-c1ncccc1Cl [Compound 1-12] | 100% | 100% | over 75% | over 75% | over 75% | over 75% | over 75% | – | – |
| CC(ONC(=O)c1cc(Cl)cc(Br)c1NC(=O)c1cc(Br)nn1-c1ncccc1Cl)C(=O)N(C)C (stereo not shown) [Compound 1-15] | 100% | 100% | over 75% | over 75% | over 75% | over 75% | over 75% | over 75% | – |
| C=CCNC(=O)CONC(=O)c1cc(Cl)cc(C)c1NC(=O)c1cc(Br)nn1-c1ncccc1Cl [Compound 1-32] | 100% | 100% | over 75% | over 75% | over 75% | over 75% | over 75% | over 75% | – |
| CCCNC(=O)CONC(=O)c1cc(Cl)cc(C)c1NC(=O)c1cc(Br)nn1-c1ncccc1Cl [Compound 1-37] | 100% | 100% | over 75% | over 75% | over 75% | over 75% | over 75% | over 75% | – |
| O=C(CONC(=O)c1cc(Br)cc(Br)c1NC(=O)c1cc(Br)nn1-c1ncccc1Cl)Nc1ccccc1 [Compound 1-47] | 100% | 100% | over 75% | over 75% | over 75% | over 75% | over 75% | over 75% | – |
| O=C(NOCC(=O)N1CCCC1)c1cc(F)cc(Br)c1NC(=O)c1cc(Br)nn1-c1ncccc1Cl [Compound 1-50] | 100% | 100% | over 75% | – | over 75% | over 75% | over 75% | over 75% | over 75% |
| Cc1cc(Cl)cc(C(=O)NOC(C)C(N)=O)c1NC(=O)c1cc(Br)nn1-c1ncccc1Cl (stereo not shown) [Compound 1-54] | 100% | 100% | over 75% | over 75% | over 75% | over 75% | over 75% | over 75% | – |
| Cc1cc(Cl)cc(C(=O)NOC(C)C(=O)N(C)C)c1NC(=O)c1cc(Br)nn1-c1ncccc1Cl (stereo not shown) [Compound 1-68] | 100% | 100% | over 75% | over 75% | over 75% | over 75% | over 75% | – | – |

From US20140200135A1, “Carbamoylmethoxy- and carbamoylmethylthio- and carbamoylmethylamino benzamides for combating invertebrate pests” (BASF SE, priority 2011, published 2014)
